These results are taken from PubChem BioAssay AID493014 (National Center for Advancing Translational Sciences (NCATS), 2011).

The structures appear in SMILES notation. This is one part of the list. The main result of the screen is listed elsewhere. These columns were measured beside it and carry no call. Most of these compounds were active or inconclusive in the main read-out, so they are no random draw. The note in brackets gives the kind of curve behind each potency; many fits are weak.

A short description of the assay: qHTS Assay to Find Inhibitors of Chronic Active B-Cell Receptor Signaling. Particulars: ABC-DLBCL IkBa-CBG/CBR reporter, luminescence ratio (green luciferase fused to IkBa over red control in TMD8 lymphoma cells), 4 h. In short, it runs like this: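 TMD8 human ABC-DLBCL cells with doxycycline-inducible IκBα–green luciferase fusion and unfused red luciferase, in 0.5% FBS medium; compounds up to 46 uM, 4 h at 37C. Green/red luminescence ratio, filter-overlap corrected, fitted to concentration-response curves.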

Where [1] appears, read: measured here: CBR red luminescence, cell number.
[2] abbreviates: measured here: IkBa-CBG green luminescence.

As to `Cc1ccsc1/C=N\NC(=O)c1n[nH]c2c1CCC2`, the AC50 under setting [1] is 9.2 µM [falling, partial curve].

Take `CC(C)C(=O)N1CCN(c2ccccc2NC(=O)c2ccco2)CC1`: the AC50 under setting [1] is 35.5 µM [falling, single point].

Turning to `COC(=O)[C@]1(Cc2ccccc2)N[C@H](c2ccc(-c3cccc(Cl)c3)cc2)[C@@H]2C(=O)N(C)C(=O)[C@@H]21`, the concentration at half-maximal activity (AC50) under setting [1] is 25.9 µM [falling, partial curve, poor fit].

Consider `COc1cccc(NC(=O)Nc2nnc(Cc3ccccc3F)s2)c1`, for which, under setting [1], the AC50 was 12.6 µM [rising, single point].

Take `Cc1nc(-c2cccc(NC(=O)Cc3ccccc3)c2)cs1`: the concentration at half-maximal activity (AC50) under setting [1] was 25.1 µM [falling, single point].

`O=C(OCCN1CCCC1)C1(c2ccccc2)CCCC1`: under setting [1], the AC50 is 2.82 µM [falling, single point].

With `CCC/C(C#Cc1ccsc1)=C1/c2ccccc2C(=O)N1c1ccccc1`, the AC50 under setting [1] was 20.6 µM [falling, partial curve].

On to `CC(=O)C(Cc1ccccc1)NC(=O)CN1c2cccc3cccc(c23)S1(=O)=O` (configuration not stated), for which the AC50 under setting [1] was 32.6 µM [rising, partial curve, poor fit].

For the compound `COc1cccc(NC(=O)c2ccc(S(=O)(=O)N3CCCC3)cc2)c1`, the AC50 under setting [1] was 8.91 µM [falling, partial curve, poor fit].

With `S=C(Nc1ccc(Cl)c(Cl)c1)NC1CCCCC1`, the concentration at half-maximal activity (AC50) is, setting by setting: under setting [1], 2.06 µM [rising, partial curve]; under setting [2], 32.6 µM [rising, partial curve, poor fit].

In the case of `Cc1ccc(-c2nn(-c3ccccc3)cc2C(=O)N2CCOCC2)cc1`, the AC50 under setting [1] is 8.91 µM [rising, partial curve].

For `CN(C)c1ccc(N=C/C=C2\N(C)c3ccccc3C2(C)C)cc1`, the half-maximal activity concentration (AC50) under setting [1] was 0.708 µM [falling, full curve].

As to `C=CCn1c(CNc2ccccc2)nnc1SCC(=O)N/N=C/c1ccc(O)cc1O`, under setting [1], the AC50 is 7.94 µM [falling, partial curve].

Consider `COC(=O)c1ccc(C(=O)OC)c(=O)[nH]1`, for which the AC50 is, setting by setting: under setting [1], 3.98 µM [falling, single point]; under setting [2], 6.31 µM [rising, single point].

Regarding `Cc1c(-c2ccccc2)nc(N)c(C#N)c1-c1cccnc1`, under setting [1], the AC50 was 0.794 µM [falling, full curve].

Take `COc1cc2c(cc1O)C(SC)=NC(C)(C)C2`: the AC50 by setting is: under setting [1], 23.1 µM [rising, single point]; under setting [2], 20.6 µM [falling, single point].

`CCOc1ccccc1N(C(=O)c1snc(C(N)=O)c1N)C(C(=O)NC1CCCC1)c1cccs1` (configuration not stated): the concentration at half-maximal activity (AC50) under setting [1] was 11.2 µM [falling, partial curve, poor fit].

Turning to `O=c1c2c(nc3cc(-c4cccc(F)c4)[nH]n13)CCC2`, the AC50 under setting [1] was 3.16 µM [falling, full curve].

For the compound `S=C(Nc1ccc(Cl)cc1)NC1CCCCC1`, the half-maximal activity concentration (AC50) under setting [1] was 28.2 µM [falling, single point].

For `N#Cc1c(N2CCOCC2)nsc1-c1ccc(C(F)(F)F)cc1`, the AC50 under setting [1] was 5.62 µM [rising, partial curve, poor fit].

As to `CCc1ccc(N2C(=O)CN(Cc3sccc3C)C2=S)cc1`, under setting [1], the half-maximal activity concentration (AC50) was 20 µM [rising, partial curve, poor fit].

Regarding `CN1CCN(C(c2ccc(C(F)(F)F)cc2)c2cc(Cl)c3cccnc3c2O)CC1` (configuration not stated), the AC50 under setting [1] is 35.5 µM [falling, single point].

`COC(=O)c1c(-c2ccc(S(C)(=O)=O)cc2)sc2cc(OC)ccc12`: under setting [1], the AC50 was 9.2 µM [rising, partial curve].

For the compound `Cc1ccc(C(=O)Nc2cccnc2)cc1S(=O)(=O)N1CCCCCC1`, under setting [1], the AC50 was 12.6 µM [falling, partial curve].

In the case of `O=S(=O)(NCCNS(=O)(=O)c1ccccc1)c1ccccc1`, the AC50 under setting [1] was 2.06 µM [rising, single point].

On to `COc1ccc(C/C(C)=N/NC(=O)c2ccc(C)cc2C)cc1`, for which the AC50 under setting [1] was 15.8 µM [falling, partial curve, poor fit].

As for `Cc1ccc(NC(=O)C2=C(O)c3ccccc3N(C)S2(=O)=O)cc1`, the AC50 under setting [1] is 16.4 µM [falling, partial curve].

Consider `COc1cc(/C=N/NC(=O)CNC(=O)/C=C/c2ccco2)cc(OC)c1OC`, for which, under setting [1], the AC50 was 4.47 µM [rising, full curve, poor fit].

For the compound `Cc1cc(NC(=O)CSc2ncnc3ccccc23)no1`, under setting [1], the half-maximal activity concentration (AC50) was 0.164 µM [falling, full curve, poor fit].

Take `C[C@]12CC[C@@H]3c4ccc(O)cc4CC[C@H]3[C@@H]1CCC2=O`: the AC50 is, setting by setting: under setting [1], 11.6 µM [rising, partial curve]; under setting [2], 7.31 µM [falling, partial curve, poor fit].

`CCCCCC(=O)Nc1sc(C)c(C)c1C#N`: the AC50 under setting [1] was 5.17 µM [rising, partial curve, poor fit].

As for `COc1ccc(C2(C)NC(=O)N(CC(=O)NC3CCCC3)C2=O)cc1OC` (configuration not stated), the half-maximal activity concentration (AC50) under setting [1] was 4.11 µM [falling, single point].

In the case of `COC(=O)c1ccc(Nc2nnc(-c3ccc(C)c(S(=O)(=O)NCC4CCCO4)c3)c3ccccc23)cc1` (configuration not stated), the AC50 under setting [1] was 2.31 µM [falling, full curve].

For `Cc1ccc(/C(N)=N/OC(=O)CCC2CCCCC2)cc1`, under setting [1], the concentration at half-maximal activity (AC50) is 20 µM [rising, single point].

`CCOC(=O)c1cc([N+](=O)[O-])sc1NC(=O)c1ccc(S(=O)(=O)N2CC3(C)CC2CC(C)(C)C3)cc1` (configuration not stated): the AC50 under setting [1] was 23.1 µM [rising, single point].

Consider `COC(=O)c1ccc(COc2ccccc2/C=C(\C#N)C(=O)Nc2ccc(C)cc2)cc1`, for which the AC50 under setting [1] is 29.1 µM [falling, single point].

As to `COC(=O)/C(=C(O)\C=C\c1ccccc1[N+](=O)[O-])c1nc2ccccc2[nH]1`, the AC50 under setting [1] was 8.91 µM [falling, partial curve].

Regarding `CCN1C(=O)NC(c2ccc(Cl)cc2)C2=C1CCCC2=O` (configuration not stated), the AC50 under setting [1] is 5.62 µM [rising, single point].

As to `Cc1cc(C)c(NC(=O)CN(C)CC(=O)Nc2cccc(S(=O)(=O)N(C)c3ccccc3)c2)c(C)c1`, the concentration at half-maximal activity (AC50) under setting [1] is 23.1 µM [falling, single point].

`CCOc1ccc(CN(C(=O)c2oc3cc(C)ccc3c2C)C2CCS(=O)(=O)C2)cc1` (configuration not stated): the half-maximal activity concentration (AC50) under setting [1] was 0.411 µM [rising, partial curve, poor fit].

For `Cc1cc(C)cc(NC(=O)c2ccc(CSc3nnc(C)s3)cc2)c1`, under setting [1], the AC50 was 11.2 µM [falling, partial curve, poor fit].

`CCN(C(=O)COC(=O)CCC(=O)c1cccs1)C1CCCCC1`: the half-maximal activity concentration (AC50) under setting [1] is 20.6 µM [rising, single point].

Turning to `CC(=O)Nc1ccc(S(=O)(=O)Nc2ccc3c(c2)CCC3)cc1`, the concentration at half-maximal activity (AC50) under setting [1] is 3.98 µM [falling, full curve].

With `CCCCCOP(=O)(OCCCCC)C1(NS(=O)(=O)c2ccccc2)C=CC(=O)c2ccccc21` (configuration not stated), the AC50 under setting [1] was 15.8 µM [falling, single point].

As to `Cc1ccc(C(=O)Nc2ncc([N+](=O)[O-])s2)cc1`, under setting [1], the AC50 was 0.112 µM [falling, full curve, poor fit].

With `O=C(NCc1ccncc1)Nc1cc(Cl)ccc1Cl`, the half-maximal activity concentration (AC50) under setting [1] was 14.1 µM [rising, single point].

As for `Cc1cc(C)n(-c2nc(NCCCO)c3c4c(sc3n2)CCCC4)n1`, the half-maximal activity concentration (AC50) under setting [1] was 0.112 µM [rising, full curve, poor fit].

In the case of `O=C(NCc1ccc(F)cc1)Nc1cccc(Cl)c1`, under setting [1], the AC50 is 1 µM [rising, full curve, poor fit].

In the case of `CN(C)CCNC(=O)c1c(NC(=O)c2ccccc2)sc2c1CCCC2`, under setting [1], the half-maximal activity concentration (AC50) was 8.91 µM [falling, partial curve, poor fit].

For the compound `COc1ccccc1Nc1nc(-c2sc(NC(=O)c3ccco3)nc2C)cs1`, the AC50 under setting [1] is 0.891 µM [falling, full curve].

Consider `COC(=O)Cc1c(C)nc2nc(-c3cccnc3)[nH]n2c1=O`, for which the AC50 under setting [1] is 0.184 µM [falling, full curve, poor fit].

Consider `C=CC[C@@H]1C=C[C@H](O/N=C/c2ccc(C(=O)N3[C@H](c4ccc(C)cc4)[C@@H](C)CC[C@H]3C(=O)OC)cc2)[C@@H](CO)O1`, for which, under setting [1], the AC50 was 10.3 µM [falling, partial curve, poor fit].

In the case of `COC(=O)c1ccc(NC(=O)C23CCC(C)(C(=O)O2)C3(C)C)cc1` (configuration not stated), under setting [1], the AC50 was 12.6 µM [rising, single point].

Consider `CCCOc1cccc(C(=O)N/N=C/c2ccoc2)c1`, for which the half-maximal activity concentration (AC50) under setting [1] is 11.2 µM [falling, partial curve].

For `O=C(NCC(c1ccco1)N1CCc2ccccc2C1)C(=O)Nc1ccc(F)cc1F` (configuration not stated), the AC50 under setting [1] was 25.9 µM [falling, partial curve].

As to `C/C(=N/NC(=O)Cc1cccs1)c1ccco1`, the half-maximal activity concentration (AC50) under setting [1] was 23.1 µM [rising, partial curve, poor fit].

As for `CCOC(=O)C1CCN(C(=O)Cn2nc(C)n3nc(-c4ccc(OC)cc4)cc3c2=O)CC1`, the AC50 under setting [1] was 12.6 µM [rising, partial curve, poor fit].

As to `CCCCNCCCCOc1ccccc1`, the AC50 under setting [1] is 6.51 µM [falling, single point].

`O=C(Nc1ccccc1Cl)c1ccc(-n2cccn2)c([N+](=O)[O-])c1`: the AC50 under setting [1] was 0.0891 µM [falling, full curve, poor fit].

For the compound `Cc1ccc(C2NC(=O)c3ccccc3O2)cc1` (configuration not stated), the concentration at half-maximal activity (AC50) under setting [1] was 17.8 µM [rising, single point].

As for `CC1CCCCN1CCNC(=O)c1cc2c(=O)n(C)c3ccccc3c2n1C` (configuration not stated), the AC50 under setting [1] was 3.16 µM [falling, partial curve, poor fit].

For `COC(=O)c1[nH]c2cccc(C)c2c1NC(=O)CN1CCCc2ccccc21`, under setting [1], the AC50 is 6.51 µM [rising, single point].

On to `C=CCN(c1ccccc1)S(=O)(=O)c1cccc(C(=O)NNC(=O)c2ccccc2O)c1`, for which, under setting [1], the concentration at half-maximal activity (AC50) is 23.1 µM [falling, single point].
